From article doi:10.1101/352112
No constants are given. Whether binding was seen depends on the method and setting. Binding seen in cells or lysates may run through a third protein. Some results given as binding are weak or reduced against the parent protein; the word gives no strength. Tags and fused reporters may be left off the sequences shown.

Target: T1, myc-tagged P0WT (P0myc) (mouse) (UniProt P27573)
T1 sequence: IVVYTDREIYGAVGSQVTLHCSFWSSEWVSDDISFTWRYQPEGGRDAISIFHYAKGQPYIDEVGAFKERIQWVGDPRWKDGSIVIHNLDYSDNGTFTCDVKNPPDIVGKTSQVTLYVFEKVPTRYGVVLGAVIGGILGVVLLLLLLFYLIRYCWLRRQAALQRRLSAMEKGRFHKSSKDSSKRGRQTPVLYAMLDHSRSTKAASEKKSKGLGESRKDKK
Assay: co-IP

- binding: binds
B1: P0Q215X (truncated Protein Zero encoded by the Mpz Q215X nonsense mutation) (domain or fragment, UniProt P27573 30-214)
chain: IVVYTDREIYGAVGSQVTLHCSFWSSEWVSDDISFTWRYQPEGGRDAISIFHYAKGQPYIDEVGAFKERIQWVGDPRWKDGSIVIHNLDYSDNGTFTCDVKNPPDIVGKTSQVTLYVFEKVPTRYGVVLGAVIGGILGVVLLLLLLFYLIRYCWLRRQAALQRRLSAMEKGRFHKSSKDSSKRGR
